The target in assay [1] is T1, human NRG1-α protein (full length, HA tag at the N-terminus, on NRG1-a/st293T cells) (human) (UniProt Q02297).
T1 sequence: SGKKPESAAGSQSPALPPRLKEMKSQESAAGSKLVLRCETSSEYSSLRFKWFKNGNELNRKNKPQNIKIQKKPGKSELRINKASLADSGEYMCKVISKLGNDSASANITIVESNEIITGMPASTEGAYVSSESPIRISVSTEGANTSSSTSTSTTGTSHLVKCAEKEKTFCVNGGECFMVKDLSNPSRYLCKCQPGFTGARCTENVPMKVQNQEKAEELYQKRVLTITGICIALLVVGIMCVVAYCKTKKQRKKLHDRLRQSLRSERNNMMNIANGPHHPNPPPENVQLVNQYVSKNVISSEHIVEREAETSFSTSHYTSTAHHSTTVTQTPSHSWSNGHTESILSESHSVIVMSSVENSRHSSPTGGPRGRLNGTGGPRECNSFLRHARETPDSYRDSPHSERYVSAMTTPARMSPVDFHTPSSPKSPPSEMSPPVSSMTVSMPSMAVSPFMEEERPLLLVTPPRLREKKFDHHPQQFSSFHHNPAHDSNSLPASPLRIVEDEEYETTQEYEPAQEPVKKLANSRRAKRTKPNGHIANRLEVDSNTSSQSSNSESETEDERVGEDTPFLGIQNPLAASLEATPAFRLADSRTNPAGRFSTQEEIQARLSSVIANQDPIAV
Description: flow cytometry on NRG1-a/st293T cells, antibody at 5 µg/mL. Background: A flow cytometer gives signals particle by particle.

The target in assay [2] is T1, human NRG1-α protein (full length, HA tag at the N-terminus, on NRG1-a/st293T cells) (human). Description: methods of Examples 2 and 3 (flow cytometry on cells, ELISA).
For assay [3] the target is unchanged. In words: flow cytometry on NRG1-a/st293T cells, antibody at 5 µg/mL and serially diluted (FIGS. 16 and 17).
Assay [4] deals with T2, human NRG1-β1 protein (full length, HA tag at the N-terminus, on NRG1-b/st293T cells) (human) (UniProt Q02297).
T2 sequence: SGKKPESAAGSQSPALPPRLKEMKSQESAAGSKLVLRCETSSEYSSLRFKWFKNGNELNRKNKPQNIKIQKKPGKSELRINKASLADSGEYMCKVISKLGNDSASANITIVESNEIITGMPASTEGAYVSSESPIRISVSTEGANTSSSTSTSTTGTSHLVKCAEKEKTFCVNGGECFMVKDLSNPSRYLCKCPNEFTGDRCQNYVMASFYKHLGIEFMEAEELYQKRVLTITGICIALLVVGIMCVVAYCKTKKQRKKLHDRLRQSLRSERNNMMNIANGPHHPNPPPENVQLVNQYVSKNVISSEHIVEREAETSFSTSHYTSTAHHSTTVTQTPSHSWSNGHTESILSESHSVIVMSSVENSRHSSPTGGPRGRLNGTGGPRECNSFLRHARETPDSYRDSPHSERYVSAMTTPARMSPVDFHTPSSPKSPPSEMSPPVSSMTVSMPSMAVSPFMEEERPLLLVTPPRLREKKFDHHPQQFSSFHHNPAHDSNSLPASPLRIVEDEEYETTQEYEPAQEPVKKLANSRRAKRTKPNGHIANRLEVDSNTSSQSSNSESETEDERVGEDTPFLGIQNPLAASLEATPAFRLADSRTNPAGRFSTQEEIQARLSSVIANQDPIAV
In words: flow cytometry on NRG1-b/st293T cells, antibody at 5 µg/mL (FIG. 16).

Assay [5] addresses T2, human NRG1-β1 protein (full length, HA tag at the N-terminus, on NRG1-b/st293T cells) (human). Description: flow cytometry on NRG1-b/st293T cells, antibody at 5 µg/mL.
The target is the same in assay [6]. Description: methods of Examples 2 and 3 (flow cytometry on cells, ELISA).

No constants are given. Whether binding was seen depends on the method and setting. Some entries that bind do so weakly or less than the wild type. Where a sequence is shown, tags or fusion partners need not be part of it.

B1: 8a4 (antibody, mouse IgG1, V domains shown)
VH: EVQLQQSGADLVRPGASVKLSCTASGFNIKDDYIHWVKQRPEQGLEWIGWIDPENGDTEYASQFQGKATITADTSSNTAYLQLRSLTSEDTAVYYCTTSDHRAWFAFWGLGTLVTVSS
VL: DVLMTQTPLSLPVSLGDQASISCRSSQTIVHRNGNTYLEWYLQKPGQSPKLLIYRVSNRFSGVPDRFSGSGSGTDFTLKISRVEAEDLGVYYCFQGSHVPLTFGAGTKL
For B1, the binding entry in assay [1] and in assay [2] was “binds” each time.

B2: 8a4 chimeric antibody (antibody, V domains shown)
VH: EVQLQQSGADLVRPGASVKLSCTASGFNIKDDYIHWVKQRPEQGLEWIGWIDPENGDTEYASQFQGKATITADTSSNTAYLQLRSLTSEDTAVYYCTTSDHRAWFAFWGLGTLVTVSS
VL: DVLMTQTPLSLPVSLGDQASISCRSSQTIVHRNGNTYLEWYLQKPGQSPKLLIYRVSNRFSGVPDRFSGSGSGTDFTLKISRVEAEDLGVYYCFQGSHVPLTFGAGTKL
On to B2, for which the binding entry in assay [3] is listed as “binds”.

B3: 10b2M3 chimeric antibody (antibody, V domains shown)
VH: QVQLQQSGPELVKPGASVKISCKASGYAFSSSWMNWVKQRPGKGLEWIGRIYPGDGDIYYNGKFKGKATLTADKSSSTAYMQLNSLTSEDSAVYFCARTFNYPFFAYWGQGTLVTVSS
VL: DILMTQSPSSLTVSTGEKVTMSCKSSQSLLASANQNNYLAWHQQKPGRSPKMLIIWASTRVSGVPDRFIGSGSGTDFTLTINSVQAEDLAVYYCQQSYSAPTTFGAGTKL
B3: the binding entry in assay [4] was “binds”.

B4: 10b2M3 (antibody, mouse IgG1, V domains shown)
VH: QVQLQQSGPELVKPGASVKISCKASGYAFSSSWMNWVKQRPGKGLEWIGRIYPGDGDIYYNGKFKGKATLTADKSSSTAYMQLNSLTSEDSAVYFCARTFNYPFFAYWGQGTLVTVSS
VL: DILMTQSPSSLTVSTGEKVTMSCKSSQSLLASANQNNYLAWHQQKPGRSPKMLIIWASTRVSGVPDRFIGSGSGTDFTLTINSVQAEDLAVYYCQQSYSAPTTFGAGTKL
As to B4, the binding result in assay [5] is reported as “binds”.

B5: 10bM3 (antibody, mouse IgG1, V domains shown)
VH: EVQLVESGGGLVKPGGSRKLSCAASGFTFSDYGIHWVRQAPEKGLEWLAYISSGSSTIYYADTVKGRFTISRDNAKNTLFLQMTSLRSEDTAMYYCARGSNYVGYYAMDYWGQGTSVTVSS
VL: DIVMTQSPSSLAVTAGEKVTMRCKSSQSLLWSVNQKNYLSWYQQKEGQSPKLLIYGASIRESWVPDRFTGSGSGTDFTLTISNVHAEDLAVYYCQHNHGRFLPLTFGGGTKL
For the molecule B5, the binding entry in assay [5] and in assay [6] was “binds” throughout.

B6: 10bM3 chimeric antibody (antibody, V domains shown)
VH: EVQLVESGGGLVKPGGSRKLSCAASGFTFSDYGIHWVRQAPEKGLEWLAYISSGSSTIYYADTVKGRFTISRDNAKNTLFLQMTSLRSEDTAMYYCARGSNYVGYYAMDYWGQGTSVTVSS
VL: DIVMTQSPSSLAVTAGEKVTMRCKSSQSLLWSVNQKNYLSWYQQKEGQSPKLLIYGASIRESWVPDRFTGSGSGTDFTLTISNVHAEDLAVYYCQHNHGRFLPLTFGGGTKL
As for B6, the binding result in assay [4] is recorded as “binds”.
